Assay results taken from paper PMC6307386.
These are yes or no findings as the source states them, for the method shown. Binding seen in cells or lysates may run through a third protein. Some results given as binding are weak or reduced against the parent protein; the word gives no strength.

Protein sequences, listed by entry. Tags and fused reporters are not part of them.
UniProt Q9BYW2: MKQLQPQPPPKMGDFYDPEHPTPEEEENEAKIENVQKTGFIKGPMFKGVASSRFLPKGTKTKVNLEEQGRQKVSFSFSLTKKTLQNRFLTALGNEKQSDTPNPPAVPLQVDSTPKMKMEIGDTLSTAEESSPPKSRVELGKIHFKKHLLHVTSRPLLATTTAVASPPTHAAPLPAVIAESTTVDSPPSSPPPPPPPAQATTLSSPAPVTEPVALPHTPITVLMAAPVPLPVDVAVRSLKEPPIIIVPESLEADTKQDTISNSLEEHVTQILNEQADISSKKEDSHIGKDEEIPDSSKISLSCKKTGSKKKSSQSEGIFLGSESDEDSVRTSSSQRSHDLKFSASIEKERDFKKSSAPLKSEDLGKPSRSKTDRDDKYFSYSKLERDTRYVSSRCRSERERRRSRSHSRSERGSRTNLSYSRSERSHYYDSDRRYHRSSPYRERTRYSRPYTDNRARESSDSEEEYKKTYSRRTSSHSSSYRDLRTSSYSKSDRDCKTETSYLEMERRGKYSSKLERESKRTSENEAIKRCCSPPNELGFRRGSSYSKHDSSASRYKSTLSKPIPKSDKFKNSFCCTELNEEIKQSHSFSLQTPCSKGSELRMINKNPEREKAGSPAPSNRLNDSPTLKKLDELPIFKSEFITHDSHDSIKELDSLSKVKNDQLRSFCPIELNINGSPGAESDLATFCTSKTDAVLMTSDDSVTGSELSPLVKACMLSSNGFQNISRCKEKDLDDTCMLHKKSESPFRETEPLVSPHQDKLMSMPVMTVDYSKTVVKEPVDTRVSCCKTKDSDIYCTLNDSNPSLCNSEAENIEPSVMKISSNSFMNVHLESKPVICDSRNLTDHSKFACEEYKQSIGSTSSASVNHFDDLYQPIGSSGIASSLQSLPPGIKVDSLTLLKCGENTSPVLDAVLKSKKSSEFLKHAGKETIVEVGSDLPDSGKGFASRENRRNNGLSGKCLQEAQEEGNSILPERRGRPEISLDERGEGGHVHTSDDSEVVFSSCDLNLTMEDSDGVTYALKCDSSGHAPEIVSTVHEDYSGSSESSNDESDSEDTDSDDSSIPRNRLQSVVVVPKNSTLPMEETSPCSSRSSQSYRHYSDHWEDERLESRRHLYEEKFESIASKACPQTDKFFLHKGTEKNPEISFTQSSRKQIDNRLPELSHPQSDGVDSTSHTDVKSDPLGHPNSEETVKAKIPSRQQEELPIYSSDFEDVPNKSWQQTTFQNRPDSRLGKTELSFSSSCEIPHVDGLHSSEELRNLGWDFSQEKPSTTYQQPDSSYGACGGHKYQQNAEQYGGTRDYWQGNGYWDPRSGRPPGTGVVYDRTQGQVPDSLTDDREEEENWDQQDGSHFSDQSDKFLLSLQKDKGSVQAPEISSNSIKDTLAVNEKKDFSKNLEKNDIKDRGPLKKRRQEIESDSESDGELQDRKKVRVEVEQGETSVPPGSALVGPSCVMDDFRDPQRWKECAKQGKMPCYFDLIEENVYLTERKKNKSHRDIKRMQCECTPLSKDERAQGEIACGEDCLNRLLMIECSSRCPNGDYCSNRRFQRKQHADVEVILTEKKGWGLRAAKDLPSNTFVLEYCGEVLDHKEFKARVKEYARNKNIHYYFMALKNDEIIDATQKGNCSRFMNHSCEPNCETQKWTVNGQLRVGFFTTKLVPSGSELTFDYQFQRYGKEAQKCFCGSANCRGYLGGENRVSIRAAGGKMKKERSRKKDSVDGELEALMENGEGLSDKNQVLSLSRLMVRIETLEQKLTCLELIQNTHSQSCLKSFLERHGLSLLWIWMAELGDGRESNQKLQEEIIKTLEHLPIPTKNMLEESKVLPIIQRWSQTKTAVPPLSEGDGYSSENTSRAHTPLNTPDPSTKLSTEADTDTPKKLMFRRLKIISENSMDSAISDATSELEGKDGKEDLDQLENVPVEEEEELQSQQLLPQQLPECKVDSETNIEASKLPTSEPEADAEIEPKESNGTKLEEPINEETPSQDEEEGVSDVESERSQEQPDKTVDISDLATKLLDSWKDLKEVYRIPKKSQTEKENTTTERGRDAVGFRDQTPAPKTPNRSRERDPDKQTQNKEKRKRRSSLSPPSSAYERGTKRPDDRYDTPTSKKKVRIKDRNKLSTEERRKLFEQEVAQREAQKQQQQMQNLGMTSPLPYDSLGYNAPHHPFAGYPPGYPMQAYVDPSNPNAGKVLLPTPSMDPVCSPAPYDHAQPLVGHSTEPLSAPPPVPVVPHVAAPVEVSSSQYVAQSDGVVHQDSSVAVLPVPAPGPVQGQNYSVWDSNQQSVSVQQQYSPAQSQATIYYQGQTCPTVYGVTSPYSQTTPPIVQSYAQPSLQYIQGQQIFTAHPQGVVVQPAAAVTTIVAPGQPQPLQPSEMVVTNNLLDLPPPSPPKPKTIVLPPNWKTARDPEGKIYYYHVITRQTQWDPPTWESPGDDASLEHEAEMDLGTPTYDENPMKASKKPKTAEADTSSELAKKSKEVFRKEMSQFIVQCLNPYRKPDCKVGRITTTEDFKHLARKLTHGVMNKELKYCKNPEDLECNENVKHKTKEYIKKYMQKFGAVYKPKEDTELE

Biological target: SETD2 (human (endogenous in HBMMSCs)) (UniProt Q9BYW2)
Experiment: co-IP; endogenous proteins of HBMMSCs infected with rLV or rLV-miR675 (also with P62 knock-down or rLV-Cas9-P62, or with pGFP-V-RS-KDM4A); IP with anti-SETD2, anti-hMSH6 or anti-SKP2, then western blotting; IgG IP as negative control; procedure by reference 42

Substance: polyubiquitin-binding protein p62 (from UniProt Q13501 1-440)
- binding: binds
